Values quoted from earlier work, collected in patent publication US20100197018A1, “USE OF SUBSTRATES AS PHARMACOLOGICAL CHAPERONES” (AMICUS THERAPEUTICS, INC., priority 2007, published 2010).
Read-outs that look alike come from different tables or passages of the source. Some entries share one result that the patent states for a list of compounds. At least one compound was matched to its structure with a doubt left. Some compounds share one range, which may span the group rather than tell each member.

Biological target: T1, heparan-N-sulfatase (Homo sapiens, UniProt P51688)
T1 sequence (P51688 21-502): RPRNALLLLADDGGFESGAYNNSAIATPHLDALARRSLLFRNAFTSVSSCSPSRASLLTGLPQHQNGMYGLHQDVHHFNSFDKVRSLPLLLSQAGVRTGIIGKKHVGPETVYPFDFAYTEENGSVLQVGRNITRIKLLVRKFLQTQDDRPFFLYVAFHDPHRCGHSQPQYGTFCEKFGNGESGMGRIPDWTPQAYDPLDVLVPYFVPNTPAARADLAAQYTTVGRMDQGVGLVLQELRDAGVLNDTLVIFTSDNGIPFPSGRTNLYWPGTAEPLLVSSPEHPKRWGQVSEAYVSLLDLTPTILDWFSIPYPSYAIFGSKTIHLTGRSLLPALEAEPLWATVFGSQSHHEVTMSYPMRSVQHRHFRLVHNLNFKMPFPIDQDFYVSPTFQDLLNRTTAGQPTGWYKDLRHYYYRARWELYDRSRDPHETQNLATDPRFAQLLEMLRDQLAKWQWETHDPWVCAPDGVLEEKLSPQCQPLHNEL
Conditions: purified enzyme

In the case of O=C[C@H](O)[C@@H](O)[C@H](O[C@H]1O[C@H](CO)[C@@H](O)[C@H](O)[C@H]1NS(=O)(=O)O)[C@@H](O)C(=O)O [GlcNS-IdOA, O-(α-2-sulphaminoglucosamine)-(1-4)-O-L-iduronic acid], the “pH optimum of the enzyme for the substrate” value (shortened to “pH optimum of the enzyme”) (text b63, b70, b71) is listed as 5.5-6.7.

In the case of O=S(=O)(O)N[C@H]1[C@@H](O[C@H]2[C@H](O)[C@@H](OS(=O)(=O)O)C(O)O[C@H]2CO)O[C@H](CO)[C@@H](O)[C@@H]1O (stereo partly drawn) [GlcNS-Ido2S, O-(α-2-sulphaminoglucosamine)-(1-4)-L-6-idose 2-sulphate], the “pH optimum of the enzyme” value (text b63, b70, b71) is given as 5.5-6.7.

For O=C[C@H](O)[C@@H](O)[C@H](O[C@H]1O[C@H](CO)[C@@H](O)[C@H](O)[C@H]1NS(=O)(=O)O)[C@@H](O)CO [GlcNS-Ido, O-(α-2-sulphaminoglucosamine)-(1-4)-L-idose)], the “pH optimum of the enzyme” value (listed as GcINS-Ido) is listed as 5.5-6.7.
